Assay results from patent publication US11236386B2, “Method for labeling of aldehyde containing target molecules” (Roche Diagnostics Operations, Inc., priority 2017, dated 2022).

Key:
[1] = tested on: mouse monoclonal antibody against TSH containing a C-terminal aldehyde tag of SEQ ID NO:3; assay: Site-specific labeling (conjugation efficacy) of aldehyde-tagged antibody, TSK GFC300 SA-FLUO analytics; settings: 37° C.
[2] = tested on: formylglycine containing peptide (11) (SEQ ID NO:1); assay: Comparison of conversion rates of α-, ß- and N-(2-aminoethyl)pyrrole reacted with formylglycine containing peptide (11); settings: acetate buffer 0.05 M, pH=5.4, 37° C., identical conditions, compared among α-

Compound | conjugation of aldehyde-tagged antibody ([1]; 3-fold excess of label, within 48 h) | conjugation of aldehyde-tagged antibody ([1]; 5-fold excess of label, within 24 h) | conversion / reaction velocity with formylglycine containing peptide (11) [2]
NC(Cn1cccc1)C(=O)NCCCOCCOCCOCCCNC(=O)CCCCC1SCC2NC(=O)NC21 (stereo not shown) [Compound 5, N-Pyrrolo-alanine-PEG2-Biotin] | conjugated quantitatively | conjugated quantitatively | 
NCCn1cccc1 [N-(2-aminoethyl)pyrrole, 2-(1H-pyrrol-1-yl)ethan-1-amine] |  |  | significantly faster
NCCc1cc[nH]c1 [β-substituted pyrrole, ß-(2-aminoethyl)pyrrole, reference compound] |  |  | slightly faster
